{"source": "the supplement of paper PMC10849652", "test_in_all_cases": "log2 fold change, soluble protein after heating vs DMSO (PISA); higher = thermal stabilisation; K562 lysate, 10 uM; active = over 0.2 and 3.5 SD of the protein, either way, in both replicates (recomputed)", "key": {"[1]": {"compound": "NCC(=O)Nc1ccc(-n2nc(C(F)(F)F)cc2-c2ccc3c(ccc4ccccc43)c2)cc1", "summary_of_the_method": "(§1)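 Following dounce homogenisation of K562 pellets in PBS pH 7.4 with 1 mM MgCl2, crude extract at 1 mg/mL protein was incubated for 30 min with 10 μM compound. Aliquots were then heated for 3 min over 48°C-58°C and pooled, NP-40 was added to 0.5% at 4°C, and soluble protein was recovered as the supernatant at 21,000xg for 90 min. Channel-sum-equalised TMTpro 16plex LC-MS/MS quantified this protein. Each value, from duplicates, is a log-two fold change in thermal stability relative to solvent controls.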"}, "vorinostat": {"compound": "O=C(CCCCCCC(=O)Nc1ccccc1)NO [vorinostat]", "summary_of_the_method": "as §1"}, "silmitasertib": {"compound": "O=C(O)c1ccc2c(c1)nc(Nc1cccc(Cl)c1)c1ccncc12 [silmitasertib]", "summary_of_the_method": "as §1"}, "[2]": {"compound": "O=C1NC(=O)C(c2cnc3ccccn23)=C1c1cn2c3c(cc(F)cc13)CN(C(=O)N1CCCCC1)CC2", "summary_of_the_method": "as §1"}, "entospletinib": {"compound": "c1cn2cc(-c3ccc4cn[nH]c4c3)nc(Nc3ccc(N4CCOCC4)cc3)c2n1 [entospletinib]", "summary_of_the_method": "as §1"}}, "note": "This is one part of the list."}
{"target": "NKIRAS2 (UniProt Q9NYR9)", "values": [{"measurement": "log2 fold change", "setting": "[1]", "value": "inactive: 0.102"}, {"measurement": "log2 fold change", "setting": "vorinostat", "value": "inactive: -0.048"}, {"measurement": "log2 fold change", "setting": "silmitasertib", "value": "inactive: -0.096"}, {"measurement": "log2 fold change", "setting": "[2]", "value": "inactive: 0.005"}, {"measurement": "log2 fold change", "setting": "entospletinib", "value": "inactive: 0.041"}]}
{"target": "NEK9 (UniProt Q8TD19)", "values": [{"measurement": "log2 fold change", "setting": "[1]", "value": "inactive: -0.03"}, {"measurement": "log2 fold change", "setting": "vorinostat", "value": "active: -0.45"}, {"measurement": "log2 fold change", "setting": "silmitasertib", "value": "inactive: 0.052"}, {"measurement": "log2 fold change", "setting": "[2]", "value": "inactive: -0.013"}, {"measurement": "log2 fold change", "setting": "entospletinib", "value": "inactive: 0.013"}]}
{"target": "NLN (UniProt Q9BYT8)", "values": [{"measurement": "log2 fold change", "setting": "[1]", "value": "inactive: 0.042"}, {"measurement": "log2 fold change", "setting": "vorinostat", "value": "inactive: 0.146"}, {"measurement": "log2 fold change", "setting": "silmitasertib", "value": "inactive: -0.01"}, {"measurement": "log2 fold change", "setting": "[2]", "value": "inactive: -0.008"}, {"measurement": "log2 fold change", "setting": "entospletinib", "value": "inactive: -0.006"}]}
{"target": "NEDD4 isoform 4 (UniProt P46934)", "values": [{"measurement": "log2 fold change", "setting": "[1]", "value": "inactive: 0.042"}, {"measurement": "log2 fold change", "setting": "vorinostat", "value": "inactive: -0.086"}, {"measurement": "log2 fold change", "setting": "silmitasertib", "value": "inactive: 0.021"}, {"measurement": "log2 fold change", "setting": "[2]", "value": "inactive: -0.004"}, {"measurement": "log2 fold change", "setting": "entospletinib", "value": "inactive: 0.019"}]}
{"target": "NDUFV3 isoform 2 (UniProt P56181)", "values": [{"measurement": "log2 fold change", "setting": "[1]", "value": "inactive: 0.022"}, {"measurement": "log2 fold change", "setting": "vorinostat", "value": "inactive: 0.094"}, {"measurement": "log2 fold change", "setting": "silmitasertib", "value": "inactive: -0.02"}, {"measurement": "log2 fold change", "setting": "[2]", "value": "inactive: 0.015"}, {"measurement": "log2 fold change", "setting": "entospletinib", "value": "inactive: -0.006"}]}
{"target": "NECTIN2 isoform 2 (UniProt Q92692)", "values": [{"measurement": "log2 fold change", "setting": "[1]", "value": "inactive: 0.028"}, {"measurement": "log2 fold change", "setting": "vorinostat", "value": "inactive: 0.327"}, {"measurement": "log2 fold change", "setting": "silmitasertib", "value": "inactive: -0.037"}, {"measurement": "log2 fold change", "setting": "[2]", "value": "inactive: -0.135"}, {"measurement": "log2 fold change", "setting": "entospletinib", "value": "inactive: -0.104"}]}
{"target": "NDUFB4 (UniProt O95168)", "values": [{"measurement": "log2 fold change", "setting": "[1]", "value": "inactive: -0.079"}, {"measurement": "log2 fold change", "setting": "vorinostat", "value": "inactive: 0.206"}, {"measurement": "log2 fold change", "setting": "silmitasertib", "value": "inactive: 0.018"}, {"measurement": "log2 fold change", "setting": "[2]", "value": "inactive: 0"}, {"measurement": "log2 fold change", "setting": "entospletinib", "value": "inactive: 0.004"}]}
{"target": "NDUFAF3 (UniProt Q9BU61)", "values": [{"measurement": "log2 fold change", "setting": "[1]", "value": "inactive: -0.105"}, {"measurement": "log2 fold change", "setting": "vorinostat", "value": "inactive: 0.063"}, {"measurement": "log2 fold change", "setting": "silmitasertib", "value": "inactive: 0.011"}, {"measurement": "log2 fold change", "setting": "[2]", "value": "inactive: 0.005"}, {"measurement": "log2 fold change", "setting": "entospletinib", "value": "inactive: -0.043"}]}
{"target": "NFAT5 isoform 5 (UniProt O94916)", "values": [{"measurement": "log2 fold change", "setting": "[1]", "value": "inactive: 0.033"}, {"measurement": "log2 fold change", "setting": "vorinostat", "value": "inactive: -0.026"}, {"measurement": "log2 fold change", "setting": "silmitasertib", "value": "inactive: 0.037"}, {"measurement": "log2 fold change", "setting": "[2]", "value": "inactive: 0.016"}, {"measurement": "log2 fold change", "setting": "entospletinib", "value": "inactive: -0.061"}]}
{"target": "NEK3 (UniProt P51956)", "values": [{"measurement": "log2 fold change", "setting": "[1]", "value": "inactive: -0.03"}, {"measurement": "log2 fold change", "setting": "vorinostat", "value": "inactive: -0.045"}, {"measurement": "log2 fold change", "setting": "silmitasertib", "value": "inactive: 0.042"}, {"measurement": "log2 fold change", "setting": "[2]", "value": "inactive: 0.033"}, {"measurement": "log2 fold change", "setting": "entospletinib", "value": "inactive: 0.04"}]}
{"target": "NDUFAF7 (UniProt Q7L592)", "values": [{"measurement": "log2 fold change", "setting": "[1]", "value": "inactive: -0.008"}, {"measurement": "log2 fold change", "setting": "vorinostat", "value": "inactive: -0.061"}, {"measurement": "log2 fold change", "setting": "silmitasertib", "value": "inactive: -0.024"}, {"measurement": "log2 fold change", "setting": "[2]", "value": "inactive: 0.025"}, {"measurement": "log2 fold change", "setting": "entospletinib", "value": "inactive: -0.011"}]}
{"target": "NENF (UniProt Q9UMX5)", "values": [{"measurement": "log2 fold change", "setting": "[1]", "value": "inactive: 0.01"}, {"measurement": "log2 fold change", "setting": "vorinostat", "value": "inactive: 0.142"}, {"measurement": "log2 fold change", "setting": "silmitasertib", "value": "inactive: -0.018"}, {"measurement": "log2 fold change", "setting": "[2]", "value": "inactive: 0.006"}, {"measurement": "log2 fold change", "setting": "entospletinib", "value": "inactive: -0.031"}]}
{"target": "NIFK (UniProt Q9BYG3)", "values": [{"measurement": "log2 fold change", "setting": "[1]", "value": "inactive: 0.063"}, {"measurement": "log2 fold change", "setting": "vorinostat", "value": "inactive: 0.063"}, {"measurement": "log2 fold change", "setting": "silmitasertib", "value": "inactive: -0.001"}, {"measurement": "log2 fold change", "setting": "[2]", "value": "inactive: 0.047"}, {"measurement": "log2 fold change", "setting": "entospletinib", "value": "inactive: 0.044"}]}
{"target": "NEMF (UniProt O60524)", "values": [{"measurement": "log2 fold change", "setting": "[1]", "value": "inactive: -0.036"}, {"measurement": "log2 fold change", "setting": "vorinostat", "value": "inactive: 0.052"}, {"measurement": "log2 fold change", "setting": "silmitasertib", "value": "inactive: 0.012"}, {"measurement": "log2 fold change", "setting": "[2]", "value": "inactive: -0.01"}, {"measurement": "log2 fold change", "setting": "entospletinib", "value": "inactive: 0.031"}]}
{"target": "NKAP (UniProt Q8N5F7)", "values": [{"measurement": "log2 fold change", "setting": "[1]", "value": "inactive: 0.121"}, {"measurement": "log2 fold change", "setting": "vorinostat", "value": "inactive: 0.058"}, {"measurement": "log2 fold change", "setting": "silmitasertib", "value": "inactive: -0.02"}, {"measurement": "log2 fold change", "setting": "[2]", "value": "inactive: -0.006"}, {"measurement": "log2 fold change", "setting": "entospletinib", "value": "inactive: -0.02"}]}
{"target": "NKX2-2 (UniProt O95096)", "values": [{"measurement": "log2 fold change", "setting": "[1]", "value": "inactive: 0.199"}, {"measurement": "log2 fold change", "setting": "vorinostat", "value": "inactive: 0.185"}, {"measurement": "log2 fold change", "setting": "silmitasertib", "value": "inactive: -0.208"}, {"measurement": "log2 fold change", "setting": "[2]", "value": "inactive: 0.191"}, {"measurement": "log2 fold change", "setting": "entospletinib", "value": "inactive: -0.063"}]}
{"target": "NIPBL (UniProt Q6KC79)", "values": [{"measurement": "log2 fold change", "setting": "[1]", "value": "inactive: -0.024"}, {"measurement": "log2 fold change", "setting": "vorinostat", "value": "active: -0.357"}, {"measurement": "log2 fold change", "setting": "silmitasertib", "value": "inactive: 0.101"}, {"measurement": "log2 fold change", "setting": "[2]", "value": "inactive: -0.005"}, {"measurement": "log2 fold change", "setting": "entospletinib", "value": "inactive: 0.071"}]}
{"target": "NFATC2IP (UniProt Q8NCF5)", "values": [{"measurement": "log2 fold change", "setting": "[1]", "value": "inactive: 0.041"}, {"measurement": "log2 fold change", "setting": "vorinostat", "value": "inactive: -0.069"}, {"measurement": "log2 fold change", "setting": "silmitasertib", "value": "inactive: -0.039"}, {"measurement": "log2 fold change", "setting": "[2]", "value": "inactive: -0.07"}, {"measurement": "log2 fold change", "setting": "entospletinib", "value": "inactive: 0.041"}]}
{"target": "NGRN (UniProt Q9NPE2)", "values": [{"measurement": "log2 fold change", "setting": "[1]", "value": "inactive: 0.012"}, {"measurement": "log2 fold change", "setting": "vorinostat", "value": "inactive: 0.193"}, {"measurement": "log2 fold change", "setting": "silmitasertib", "value": "inactive: -0.05"}, {"measurement": "log2 fold change", "setting": "[2]", "value": "inactive: -0.069"}, {"measurement": "log2 fold change", "setting": "entospletinib", "value": "inactive: -0.005"}]}
{"target": "NFE2L1 (UniProt Q14494)", "values": [{"measurement": "log2 fold change", "setting": "[1]", "value": "inactive: 0.257"}, {"measurement": "log2 fold change", "setting": "vorinostat", "value": "inactive: 0.104"}, {"measurement": "log2 fold change", "setting": "silmitasertib", "value": "inactive: -0.021"}, {"measurement": "log2 fold change", "setting": "[2]", "value": "inactive: 0.086"}, {"measurement": "log2 fold change", "setting": "entospletinib", "value": "inactive: -0.042"}]}
